Measured values reported in patent US9539259B2, “Compounds and methods of use thereof for treating neurodegenerative disorders” (THE JOHNS HOPKINS UNIVERSITY, priority 2012, dated 2017).
At least one compound was matched to its structure with a doubt left.

Tests used:
primary RGCs = test: Survival of immunopanned primary RGCs in culture; details: increasing doses, 72 hours in culture
Description: All animal use was in accordance with ARVO Statement for the Use of Animals, and all the experimental procedures were performed in compliance with animal protocols approved by the IACUC at Johns Hopkins University. Retinas were isolated from postnatal 0-5 day mice and dissociated with papain. Microglia was immunodepleted with anti-CD11b conjugated Dynabeads. The suspension of retinal cells were immunopanned on plates pre-conjugated with anti-Thy1.2 antibody (Serotec, Raleigh, N.C.; MCA028) and goat anti-mouse IgM (Jackson Immunoresearch) at room temperature (RT). After washing, RGCs were released from the plate by a cell lifter, counted, and seeded at a density of 10,000 per well in 96-well plates in the media composed of Neurobasal, B27, N2 supplement, L-glutamine, and penicillin/streptomycin. After a 72 hour culture at 37° C., RGCs were stained with calcein AM, ethidium homodimer, and Hoechst 33342. Images were taken from portions of each well with Cellomics Kinetscan or Cellomics ArrayScan VTI HCS Readers (Thermo Fisher), and cell survival was quantified and calculated with the algorithms in Cellomics Neuroprofiling package. As indicated, RGC viability was alternatively measured by CellTiter-Glo luminescence (Promega, Fitchburg, Wis.). […]

[1] = tested on: DLK signaling (phosphorylation of MKK7 and JNK); test: Western blot of DLK pathway members in RGCs; format: cell-based, mouse; details: RGCs 4 hours after immunopanning, concentrations that increase RGC survival
Description: The shaded area indicates the toxic range for tozasertib; (B) Western blot of the DLK pathway members in RGCs 4 hours after immunopanning in the presence of 0, 0.03, 0.06, 0.125, 0.25, 0.5, 1 or 2 μM tozasertib; (C) survival of cultured RGCs 72 hours after transfection with DLK (dashed) or nontargeting siRNA (solid) in the presence of increasing doses of tozasertib; and (D) survival of cultured RGCs 48 hours after transduction with DLK expressing adenovirus in the presence of increasing doses of tozasertib. Error bars show standard deviation; and
Western blots were performed according to the standard protocol. The following antibodies were from Cell Signaling Technology (Beverly, Mass.): Phospho-JNK, Thr183/Tyr185 (4671); JNK (9258); Phospho-MKK7 (4171), and MKK7 (4172). Monoclonal anti-alpha-tubulin antibody (T6074) was purchased from Sigma (St. Louis, Mo.), βIII tubulin (TUJ1) from Covance, goat polyclonal Brn3 from C-13, and rabbit anti-Cre from Novus. DLK rabbit polyclonal was provided by S. Hirai.

immunopanned RGCs = test: Markers of apoptosis in cultured RGCs (caspase 3 activity, nuclear condensation and fragmentation); format: cell-based, mouse
RGCs = test: Patch-clamp recordings of RGCs kept alive in culture; format: cell-based, mouse; details: patch-clamp at two weeks in culture

For COc1cc2c(Nc3ccc(Br)cc3F)ncnc2cc1OCC1CCN(C)CC1 [vandetanib], which “RGC survival / neuroprotective activity in culture” value (primary RGCs) is on record?
Its value is “lack neuroprotective activity”.

How did the “phosphorylation of targets downstream of DLK, including MKK7 and JNK” value [1] turn out when CCN(CC)CCNC(=O)c1c(C)[nH]c(/C=C2\C(=O)Nc3ccc(F)cc32)c1C [sunitinib] was run?
The value was “decrease in the phosphorylation of targets downstream of DLK”.

What about the “markers of apoptosis, including caspase activation, nuclear condensation and fragmentation” value (immunopanned RGCs) of the same compound?
The value was “decrease in markers of apoptosis”.

What about the “electrophysiological function of surviving RGCs” value (RGCs) of the same compound?
Its value is “conducted action potentials in response to depolarizing current and were responsive to exogenously applied glutamate”.

How did the “RGC survival / neuroprotective activity in culture” value (primary RGCs) turn out when COc1cc2c(N3CCN(C(=O)Nc4ccc(OC(C)C)cc4)CC3)ncnc2cc1OCCCN1CCCCC1 [tandutinib] was run?
The value was “lack neuroprotective activity”.
